In patent US12194080B2, “Methods for identification, assessment, prevention, and treatment of metabolic disorders using PM20D1 and N-lipidated amino acids” (Dana-Farber Cancer Institute, Inc., priority 2015, dated 2025):

Assay: Targeted MRM quantitation of N-acyl amino acids in plasma of AAV-injected mice
Format: in vivo, mouse
Settings: for absolute quantitation in plasma, AAV-GFP mice / absolute quantitation in plasma, AAV-PM20D1 mice / Plasma levels: HFD; for absolute quantitation in plasma, AAV-GFP mice / absolute quantitation in plasma, AAV-PM20D1 mice: thermoneutrality, 47 days post-injection; for Plasma levels: endogenous level in AAV-GFP mice, room temperature, 54 days post-injection, n=4; for change of plasma level by PM20D1 (AAV-PM20D1 versus AAV-GFP): targeted MRM

Row | Compound | absolute quantitation in plasma, AAV-GFP mice [nM] | absolute quantitation in plasma, AAV-PM20D1 mice [nM] | Plasma levels [nM] | change of plasma level by PM20D1 (AAV-PM20D1 versus AAV-GFP)
1 | CCCCC/C=C\C/C=C\CCCCCCCC(=O)N[C@@H](Cc1ccccc1)C(=O)O [N-linoleoyl phenylalanine] | 2 | 7 | 2.4 ± 0.4 | 
2 | CCCCCCCCCCCCCC(=O)N[C@@H](Cc1ccccc1)C(=O)O [C14-Phe] |  |  | 0.4 ± 0.1 | 
3 | CCCCCCCC/C=C\CCCCCCCC(=O)N[C@@H](CC(C)C)C(=O)O [C18:1-Leu, Oleoyl-L-leucine] | 6 | 29 |  | 
4 | CCCCCCCC/C=C\CCCCCCCC(=O)N[C@@H](Cc1ccccc1)C(=O)O [C18:1-Phe, Oleoyl-L-phenylalanine] | 4 | 10 | 3.8 ± 0.4 | increased
5 | CCCCCCCCCCCCCCCC(=O)N[C@@H](Cc1ccccc1)C(=O)O [N-palmitoyl phenylalanine, Palmitoyl-L-phenylalanine] | 6 | 15 | 6.0 ± 1.5 | 
6 | CCCCCCCC/C=C\CCCCCCCC(=O)N[C@@H](C)C(=O)O [C18:1-Ala] |  |  | 1.9 ± 0.2 | not
7 | CCCCCCCC/C=C\CCCCCCCC(=O)N[C@H](C(=O)O)C(C)C [C18:1-Val] |  |  | 2.9 ± 0.6 | not
8 | CCCCCCCC/C=C\CCCCCCCC(=O)NCC(=O)O [C18:1-Gly] |  |  | 65.0 ± 14.2 | not
9 | CCCCCCCCCCCCCCCCCCCC(=O)N[C@@H](Cc1ccccc1)C(=O)O [N-arachidoyl phenylalanine, Icosanoyl-L-phenylalanine] |  |  | 0.3 ± 0.0 | 
10 | CCCCC/C=C\C/C=C\C/C=C\C/C=C\CCCC(=O)N[C@@H](Cc1ccccc1)C(=O)O [C20:4-Phe, N-arachidonoyl phenylalanine] |  |  | 0.6 ± 0.1 | 
